From publication PMC9765416

Target: T1, PPE68 of M. tuberculosis (endogenous in strain mc^26020) (M. tuberculosis (endogenous in M. tuberculosis mc^26020)) (UniProt P9WHW9)
T1 sequence: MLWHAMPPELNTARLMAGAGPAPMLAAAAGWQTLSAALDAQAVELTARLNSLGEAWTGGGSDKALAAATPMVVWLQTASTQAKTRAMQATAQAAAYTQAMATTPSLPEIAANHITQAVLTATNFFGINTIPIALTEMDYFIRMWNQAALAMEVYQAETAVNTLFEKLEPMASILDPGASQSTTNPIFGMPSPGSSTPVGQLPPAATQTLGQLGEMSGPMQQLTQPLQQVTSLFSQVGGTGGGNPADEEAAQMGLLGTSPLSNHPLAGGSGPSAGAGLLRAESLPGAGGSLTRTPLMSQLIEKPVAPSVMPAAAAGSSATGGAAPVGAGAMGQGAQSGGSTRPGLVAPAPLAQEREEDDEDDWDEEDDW
Assay: native gel or EMSA

Q: With EspG1 chaperone of M. tuberculosis as the substance, how does the binding read?
A: Its binding is “binds”.

Results are given in words; binding and its absence hold for the method and conditions named. A result given as binding can be weak or reduced; the word gives no strength.
